# The campaign covered roughly 300,000 compounds. About 5,400 (1.8%) were called active. This list was built around the results that the source calls inconclusive (neither active nor inactive); the mix of calls is not that of the screen. Calls follow the shape of the full dose curve; tested in HEK293 cells. Potencies of inconclusive entries are doubtful fits and often do not repeat.
# Test: qHTS for inhibitors of binding or entry into cells for Marburg Virus
# Settings: Marburg virus pseudotyped entry inhibition, cell reporter; activity change, negative = inhibition: at 37.8 µM (top of the series) unless noted
# % is scaled to controls: 0 for no effect and ±100 for the full control effect; potency is read from the fitted curve at half-maximal effect.
SMILES,Potency,"activity change, negative = inhibition"
OC(c1ccccn1)(c1ccccn1)c1ccccn1,"inconclusive: 18.4 µM [inhibitor, single point]",–
CCCn1c(=O)[nH]c(=O)c2c1nc(-c1ccccc1)n2CCN1CCOCC1,–,inactive: -3.74%
Cc1ccc(N(CC(=O)NCc2ccccc2)C(=O)c2csnn2)c(C)c1,"inconclusive: 3.98 µM [inhibitor, full curve]",–
Cc1ccc(NC(=O)Cn2c(=O)n(CCCC(=O)NCc3ccc4c(c3)OCO4)c(=O)c3ccccc32)cc1,–,inactive: -1.04% [at 46.1 µM]
CCCN1Cc2cccc(C(=O)Nc3ccc(CN4CCCC4)cc3)c2C1=O,"inconclusive: 25.9 µM [inhibitor, single point]",–
Nc1nc2c(nnn2Cc2ccc(Cl)c(Cl)c2)c(=O)[nH]1,"inconclusive: 11.2 µM [inhibitor, partial curve, poor fit]",–
CCOC(=O)c1oc2ccc(CNC(C)(C)C)c(Cl)c2c1C,"inconclusive: 25.9 µM [inhibitor, partial curve, poor fit]",–
COCCCN(C(=O)CCOc1ccc(C(C)(C)C)cc1)c1c(N)n(Cc2ccccc2)c(=O)[nH]c1=O,–,inactive: -25.7% [at 46.1 µM]
Cc1ccccc1OCC(=O)NC1=NCCS1,"inconclusive: 1.83 µM [inhibitor, single point]",–
Cc1ccc2c(c1)Cc1nc3ccccc3nc1-2,active: 6.31 µM,–
O=C(NC1CCCC1)C(c1ccco1)N(C(=O)c1ccco1)c1ccccc1 (stereo not given),"inconclusive: 3.16 µM [activator, single point]",–
Nc1c(-c2cccc(Cl)c2)cnn1-c1cccc([N+](=O)[O-])c1,"inconclusive: 0.224 µM [activator, single point]",–
COc1ccc(C(=O)O/N=C(/C)c2cccs2)cc1,–,inactive: -21.8% [at 46.1 µM]
O=C(O)c1ccc(Sc2nnnn2-c2ccccc2)c([N+](=O)[O-])c1,–,inactive: 2.08% [at 46.1 µM]
Cc1ccc(NC(=S)NCCC(c2ccccc2)c2ccccc2)c(C)c1,"inconclusive: 12.6 µM [inhibitor, single point]",–
O=C1CC(c2nc3ccccc3n2CCC2CCCCC2)CN1c1ccccc1Cl (stereo not given),"inconclusive: 11.2 µM [inhibitor, single point]",–
C=C(C)CNC(=S)NNC(=O)CCn1c2ccccc2c2ccccc21,"inconclusive: 20 µM [inhibitor, single point]",–
Cc1cc(C)c2c(ccc3cccc[n+]32)c1,"inconclusive: 11.2 µM [inhibitor, partial curve, poor fit]",–
CNCc1c(C)nn(-c2ccccc2)c1C,–,inconclusive: 39.2% [activator] [at 46.1 µM]
c1ccc(-c2nnc(-c3c[nH]c4ccccc34)nc2-c2ccccc2)cc1,"inconclusive: 25.1 µM [inhibitor, single point]",–
Nc1ccc(-n2nnnc2-c2ccco2)cc1,–,inactive: 25.4%
Cc1cnc(C)c(N2CCN(Cc3nc(-c4ccc(C)o4)oc3C)CC2)n1,–,inactive: -14.7% [at 46.1 µM]
O=c1c2ccccc2nc2n1C(CSCc1cccc(C(F)(F)F)c1)CS2 (stereo not given),"inconclusive: 12.6 µM [inhibitor, partial curve, poor fit]",–

SMILES,Potency,"activity change, negative = inhibition"
COc1cccc(-c2nc(-c3ccncc3)no2)c1,"inconclusive: 0.631 µM [activator, full curve, poor fit]",–
Cn1c(NCc2ccco2)nc2c1c(=O)n(Cc1ccc(Br)cc1)c(=O)n2C,–,inactive: -22%
CC(C)C(=O)NC(c1ccccc1Cl)c1c(O)ccc2ccccc12 (stereo not given),–,inactive: -28.2%
O=C(/C=C/c1ccccc1)NCCSCc1ccccc1Cl,–,inactive: 2.06%
Cc1c(Cl)cccc1NC(=O)[C@@]1(CC(=O)O)CC(/C=C/c2ccccc2)=NO1,"inconclusive: 12.6 µM [activator, partial curve]",–
Cc1ccc(NC(=O)CSc2ncnc3ccccc23)cc1S(=O)(=O)N1CCCCCC1,"inconclusive: 35.5 µM [inhibitor, single point]",–
Cc1ccc(CN(C)C(=O)c2ccc(S(=O)(=O)N(C)c3ccccc3)cc2)o1,"inconclusive: 35.5 µM [inhibitor, single point]",–
Cc1nc2sc(C(c3cccs3)N3CCC4(CC3)OCCO4)c(O)n2n1 (stereo not given),"inconclusive: 13 µM [activator, partial curve, poor fit]",–
CC(C)NC(=O)C(=O)NCCc1ccc(Cl)cc1,"inconclusive: 0.447 µM [activator, full curve, poor fit]",–
COc1cccc(/C=N/NC(=O)COc2cccc3cccnc23)c1O,"inconclusive: 8.91 µM [inhibitor, partial curve, poor fit]",–
COc1ccc(/C(O)=C2\C(=O)C(=O)N(CCN3CCOCC3)C2c2ccccc2OC)cc1 (stereo not given),"inconclusive: 3.98 µM [inhibitor, single point]",–
Cc1nnc2sc(-c3cccc(F)c3)nn2c1=O,"inconclusive: 1 µM [inhibitor, full curve, poor fit]",–
COc1cc(/C=N/n2c(C3CCCCC3)n[nH]c2=S)cc(OC)c1O,–,inactive: -6.18% [at 46.1 µM]
O=C(CSC1=NS(=O)(=O)c2cc(Cl)ccc2N1)Nc1ccccc1F,"inconclusive: 0.112 µM [inhibitor, full curve, poor fit]",–
CCCCOP(=O)(OCCCC)C(O)c1ccc(F)cc1 (stereo not given),–,inactive: 6.89%
O=C(CNc1cccc2ccccc12)N/N=C/c1ccc([N+](=O)[O-])o1,"inconclusive: 20.6 µM [inhibitor, single point]",–
Cn1c(Cc2ccccc2)[n+](C)c2ccccc21,–,inactive: -21% [at 46.1 µM]
CCOC(=O)NC(=S)c1ccc[nH]1,"inconclusive: 11.2 µM [activator, single point]",–
O=C(c1cc2ccccc2oc1=O)N(Cc1ccccc1)C1CCS(=O)(=O)C1 (stereo not given),"inconclusive: 11.2 µM [activator, single point]",–
Cc1cccc(-n2nc([N+](=O)[O-])c(=NCc3cccnc3)n2O)c1,–,inactive: -2.15%
Cc1cccc(N(Cc2ccccc2)C(=O)c2cccc(S(=O)(=O)N3CC(C)OC(C)C3)c2)c1 (stereo not given),"inconclusive: 11.2 µM [inhibitor, partial curve, poor fit]",–
CC(O)CNC(=O)C1CCN(Cc2ccc(OCc3ccccc3)cc2)CC1 (stereo not given),"inconclusive: 29.1 µM [inhibitor, single point]",–

# Part of the list above, bar-delimited.
SMILES | Potency | activity change, negative = inhibition
CCCN1Cc2cccc(C(=O)Nc3ccc(CN4CCCC4)cc3)c2C1=O | inconclusive: 25.9 µM [inhibitor, single point] | –
Nc1nc2c(nnn2Cc2ccc(Cl)c(Cl)c2)c(=O)[nH]1 | inconclusive: 11.2 µM [inhibitor, partial curve, poor fit] | –
CCOC(=O)c1oc2ccc(CNC(C)(C)C)c(Cl)c2c1C | inconclusive: 25.9 µM [inhibitor, partial curve, poor fit] | –
COCCCN(C(=O)CCOc1ccc(C(C)(C)C)cc1)c1c(N)n(Cc2ccccc2)c(=O)[nH]c1=O | – | inactive: -25.7% [at 46.1 µM]
Cc1ccccc1OCC(=O)NC1=NCCS1 | inconclusive: 1.83 µM [inhibitor, single point] | –
Cc1ccc2c(c1)Cc1nc3ccccc3nc1-2 | active: 6.31 µM | –
O=C(NC1CCCC1)C(c1ccco1)N(C(=O)c1ccco1)c1ccccc1 (stereo not given) | inconclusive: 3.16 µM [activator, single point] | –
Nc1c(-c2cccc(Cl)c2)cnn1-c1cccc([N+](=O)[O-])c1 | inconclusive: 0.224 µM [activator, single point] | –
COc1ccc(C(=O)O/N=C(/C)c2cccs2)cc1 | – | inactive: -21.8% [at 46.1 µM]
O=C(O)c1ccc(Sc2nnnn2-c2ccccc2)c([N+](=O)[O-])c1 | – | inactive: 2.08% [at 46.1 µM]
Cc1ccc(NC(=S)NCCC(c2ccccc2)c2ccccc2)c(C)c1 | inconclusive: 12.6 µM [inhibitor, single point] | –
O=C1CC(c2nc3ccccc3n2CCC2CCCCC2)CN1c1ccccc1Cl (stereo not given) | inconclusive: 11.2 µM [inhibitor, single point] | –
C=C(C)CNC(=S)NNC(=O)CCn1c2ccccc2c2ccccc21 | inconclusive: 20 µM [inhibitor, single point] | –
Cc1cc(C)c2c(ccc3cccc[n+]32)c1 | inconclusive: 11.2 µM [inhibitor, partial curve, poor fit] | –

# — PubChem BioAssay AID540276 (National Center for Advancing Translational Sciences (NCATS), 2011)
